At least one read-out could not be matched to a standard name with certainty.
Assay: Blood plasma levels of psilocin over time in rats dosed with psilocybin
Assay type: in vivo
Details: same at all dose levels 0.05, 0.1, 1 and 10 mg/kg

CN(C)CCc1c[nH]c2cccc(OP(=O)(O)O)c12 [psilocybin, 4-phosphoryloxy-N,N-dimethyltryptamine]
time of Cmax psilocin: 30 min

— US20240120053A1, “5-HT RECEPTOR AGONIST TITRATION” (Diamond Therapeutics Inc., priority 2021, published 2024)
